At least one compound was matched to its structure with a doubt left.
System: Caco-2
Test: Caco-2 permeability assay (CacoReady kit)
Format: in vitro ADME
Settings: Caco-2 barrier
Description: Permeability coefficients (Papp values) were obtained from Caco-2 barrier studies predicting oral/intestinal bioavailability of the tested compounds. The assays were performed by using CacoReady™ ready-to-use kits from ReadyCell according to the manufacturers protocol.

`CCC(CC)CNC(=O)Cn1cccc(NC(=O)[C@H](CCC(=O)C(=O)NC)NC(=O)c2cncn2C)c1=O` [Ref. 1, reference compound] was tested, and the Papp was “A (A: Papp < 1 × 10^−6 cm/s)”.
